Like-named read-outs stand apart in the source and are kept apart here. These are yes or no findings as the source states them, for the method shown. Binding seen in cells or lysates may run through a third protein. Some binding calls cover weakened binding; strength is not graded here. For some assays here: Tags and fused reporters may be left off the sequences shown. One block for each molecule: values may come before it.
Legend:
[1] = molecular target: T1, TMEM160 (endogenous) (human (endogenous in DLD1 and HCT116)) (UniProt Q9NX00); experiment: co-IP; endogenous proteins in DLD1 and HCT116 cells; Protein A/G immunoprecipitation kit, western blot
T1 sequence: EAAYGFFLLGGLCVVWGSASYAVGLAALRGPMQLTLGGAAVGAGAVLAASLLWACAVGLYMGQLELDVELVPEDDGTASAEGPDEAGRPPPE

The chains behind the UniProt entries cited, without tags or fusion partners. Residues count along the entry.
UniProt Q9NZQ7, residues 19-290: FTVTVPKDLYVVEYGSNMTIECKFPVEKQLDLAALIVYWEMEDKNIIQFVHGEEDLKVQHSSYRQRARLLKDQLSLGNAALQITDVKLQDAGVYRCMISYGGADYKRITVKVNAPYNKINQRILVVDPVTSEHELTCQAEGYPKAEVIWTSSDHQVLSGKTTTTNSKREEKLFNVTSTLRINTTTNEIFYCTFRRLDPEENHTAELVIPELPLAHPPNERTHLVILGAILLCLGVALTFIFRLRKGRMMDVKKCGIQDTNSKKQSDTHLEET
UniProt O43791: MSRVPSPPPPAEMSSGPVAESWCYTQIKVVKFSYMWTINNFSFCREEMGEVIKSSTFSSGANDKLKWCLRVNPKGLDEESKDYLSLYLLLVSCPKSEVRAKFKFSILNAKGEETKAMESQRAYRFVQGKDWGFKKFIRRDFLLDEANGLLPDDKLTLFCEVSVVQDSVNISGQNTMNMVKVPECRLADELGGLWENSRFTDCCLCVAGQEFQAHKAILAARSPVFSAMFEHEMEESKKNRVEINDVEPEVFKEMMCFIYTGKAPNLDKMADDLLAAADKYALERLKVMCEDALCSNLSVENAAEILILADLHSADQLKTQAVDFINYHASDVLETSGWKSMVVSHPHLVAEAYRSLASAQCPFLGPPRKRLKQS

[2] = molecular target: PD-L1 (competition co-IP in DLD1 and SW480 cells) (UniProt Q9NZQ7); experiment: co-IP; co-IP of SPOP and PD-L1 in DLD1 and SW480 cells with TMEM160 overexpressed
Myc-TMEM160 = molecular target: T2, Myc-TMEM160 (UniProt Q9NX00); experiment: co-IP; exogenous Myc-TMEM160 and Flag-PD-L1 in HEK-293T and SW480 cells; Protein A/G immunoprecipitation kit, western blot
T2 sequence: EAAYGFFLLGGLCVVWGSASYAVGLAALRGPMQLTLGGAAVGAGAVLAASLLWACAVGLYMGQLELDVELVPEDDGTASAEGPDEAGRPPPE

[3] = molecular target: PD-L1 (competition co-IP in DLD1 and SW480 cells) (UniProt Q9NZQ7); experiment: co-IP; co-IP of SPOP and PD-L1 in DLD1 and SW480 cells with TMEM160 overexpressed; remark: listed apart in the source

Molecule: SPOP (competition co-IP in DLD1 and SW480 cells) (from UniProt O43791 1-374)
binding [2]: binds

Molecule: Flag-PD-L1 (from UniProt Q9NZQ7 19-290)
binding (Myc-TMEM160): binds

Continued, values first:

binding [1]: binds
Molecule: PD-L1 (endogenous) (from UniProt Q9NZQ7 19-290)

binding [1]: binds
Molecule: SPOP (endogenous) (from UniProt O43791 1-374)

binding [3]: binds
B1: Myc-TMEM160 (protein, UniProt Q9NX00 97-188)
chain: EAAYGFFLLGGLCVVWGSASYAVGLAALRGPMQLTLGGAAVGAGAVLAASLLWACAVGLYMGQLELDVELVPEDDGTASAEGPDEAGRPPPE
